Measured values: PubChem BioAssay AID504444 (National Center for Advancing Translational Sciences (NCATS), 2011)
Hit rate of the full screen: of about 360,000 compounds, about 7,500 (2.1%) were called active. The shares of active, inactive and inconclusive entries below differ from those in the screen. Calls follow the shape of the dose curve; as a rule, active = well fitted inhibition curve with a large enough effect; inconclusive = small, poorly fitted or top-dose-only effect, or effect the other way; inactive = flat fitted curve, though single readings scatter. Potencies beside an inconclusive call are fits to weak or partial responses and may not hold up.

Test: Nrf2 qHTS screen for inhibitors; also: nearly all actives have a fitted effect of over 60% in size
Settings: A549 ARE-Fluc reporter, luciferase luminescence, 18-24 h; series mostly up to 46 µM
In short: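 Two sequential reads on A549 ARE_Fluc cells exposed to compound for 18-24 h: a CellTiter-Fluor fluorescence read for viability, then a luciferase luminescence read for Nrf2/ARE activity.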
Potency is read from the fitted curve at half-maximal effect.

| SMILES | Potency |
| --- | --- |
| O=C(C[n+]1cc(-c2ccc(F)cc2)n2c1CCC2)N1c2ccccc2Sc2ccccc21 | inconclusive: 20.6 µM [activator, single point] |
| O=c1[nH]cnc2scc(-c3ccc(-c4ccccc4)cc3)c12 | inconclusive: 0.326 µM [activator, full curve, poor fit] |
| CCN(CC)c1ccc(NS(=O)(=O)c2cc3[nH]c(=O)c(=O)[nH]c3cc2C)c(C)c1 | inactive |
| O=C(NCc1ccccn1)/C(=N/O)c1ccccc1 | inconclusive: 3.26 µM [activator, full curve, poor fit] |
| CCOc1ccc(-n2nc3ccc(NC(=O)COc4ccc(OC)cc4)cc3n2)cc1 | inconclusive: 2.31 µM [falling, full curve, poor fit] |
| O=C(c1ccc(COc2ccc(Cl)cc2)o1)N1CCN(Cc2ccc3c(c2)OCO3)CC1 | active: 23.1 µM |
| COC(=O)c1ccc(C2C(C(=O)Nc3ccccc3)=C(C)Nc3nc4ccccc4n32)cc1 (configuration not stated) | inconclusive: 32.6 µM [falling, single point] |
| O=C(NC(=S)Nc1cccc(S(=O)(=O)NC2=NCCC2)c1)c1cc(-c2ccco2)nc2ccccc12 | inconclusive: 29.1 µM [activator, single point] |
| Cc1ccc(NC(=O)CSc2ncn[nH]2)cc1 | inconclusive: 2.91 µM [activator, full curve, poor fit] |
| COc1cc(C)cc2oc(=O)c(CC(=O)NCc3cccc(Cl)c3)c(C)c12 | inconclusive: 18.4 µM [falling, partial curve] |
| Cc1ccc(NC(=O)CSc2nc(-c3ccco3)cc(C(F)(F)F)n2)cc1 | inactive |
| O=C(c1cc(COc2c(F)cccc2F)on1)N1CCC(c2ccccc2Cl)C1 (configuration not stated) | inconclusive: 2.59 µM [activator, full curve] |
| Cc1ccc(NC(=O)CN2C(=O)CCSc3ccc(S(=O)(=O)N4CCCC4)cc32)cc1C | inconclusive: 29.1 µM [falling, single point] |
| CCOC(=O)C1(CCOc2ccccc2)CCN(Cc2ccc(OC)cc2)CC1 | inconclusive: 32.6 µM [falling, single point] |
| O=C(NCC(=O)N1CCN(c2ccccc2O)CC1)c1ccccc1 | inconclusive: 11.6 µM [activator, partial curve] |
| COC(=O)c1ccc(C(=O)OC)c(NC(=O)Oc2ccccc2)c1 | inactive |
| O=C(c1cccs1)c1sccc1Cc1ccccc1 | inactive |
| c1cc2c(cc1C1=NNC(=NC3CC3)SC1)OCCO2 | active: 2.31 µM |
| O=C(Cc1ccc(-n2cccc2)cc1)NCc1cccs1 | inconclusive: 23.1 µM [activator, partial curve, poor fit] |
| COc1cccc(C(=O)Nc2ccc(NC(=O)C(C)(C)C)cn2)c1 | inconclusive: 2.31 µM [activator, partial curve, poor fit] |
| COc1ccc(-n2c(SCC(=O)Nc3sc4c(c3C#N)CCCC4)nnc2-c2ccccc2OC)cc1 | inconclusive: 29.1 µM [falling, single point] |
| O=C(N/N=C/c1ccccn1)c1cccc(S(=O)(=O)N2CCCC2)c1 | inconclusive: 32.6 µM [falling, single point] |
| O=C(O)c1c2c(nc3ccccc13)/C(=C/c1ccc(O)cc1)CC2 | inconclusive: 29.1 µM [falling, single point] |

| SMILES | Potency |
| --- | --- |
| N#Cc1c(-c2ccccc2)nc(SCc2cccc(Cl)c2)[nH]c1=O | inactive |
| Cc1ccccc1NC(=O)CSc1nc2ncc(Cl)cc2[nH]1 | inconclusive: 18.4 µM [falling, single point] |
| CCOc1ccccc1NC(=O)c1cc2ccccc2oc1=O | inactive |
| Cc1cc(SCC(=O)NC(=O)NCc2ccco2)nc2ccccc12 | inactive |
| Cc1onc(-c2c(F)cccc2Cl)c1C(=O)Nc1nnc(-c2ccccc2)s1 | inconclusive: 29.1 µM [falling, single point] |
| Cc1ccc(Cl)cc1N1CCN(Cc2nnc(-c3ccc4c(c3)OCO4)o2)CC1 | active: 20.6 µM |
| CCOC(=O)c1sc(=NC(=O)c2ccc(F)cc2)n(C)c1C | inconclusive: 2.06 µM [activator, full curve] |
| Cc1ccc(NC(=S)NNC(=O)C2CC2c2ccc(C)cc2)cc1 (configuration not stated) | inconclusive: 7.31 µM [falling, partial curve, poor fit] |
| CN1CCN(c2sc(S(C)(=O)=O)nc2S(=O)(=O)c2ccc(Cl)cc2)CC1 | inconclusive: 23.1 µM [falling, partial curve, poor fit] |
| CO/N=C/C(C(C)=O)C(=O)Nc1ccc(Cl)cc1Cl (configuration not stated) | inconclusive: 16.4 µM [activator, partial curve] |
| Cc1ccc(-c2nnn(CC(=O)N(Cc3ccc(F)cc3)C(C(=O)NC3CCCC3)c3ccncc3)n2)o1 (configuration not stated) | inconclusive: 18.4 µM [falling, partial curve, poor fit] |
| CCN(CC)S(=O)(=O)c1cccc(-c2nnc(SCC(=O)c3cc(C)n(C4CC4)c3C)o2)c1 | inconclusive: 6.51 µM [falling, single point] |
| C=CCN1CC(=O)N2C(C)c3[nH]c4ccccc4c3C[C@H]2C1=O (some centres not stated) | inconclusive: 20.6 µM [falling, partial curve, poor fit] |
| Cn1nccc1NC(=O)Nc1cccc(Cl)c1Cl | active: 16.4 µM |
| CCCc1cc(=O)oc2c3c(cc(OCC(=O)NCc4ccncc4)c12)OC(C)(C)CC3 | active: 11.6 µM |
| Cc1ccc(C)c(Cn2c(C3CC(=O)N(c4ccccc4C)C3)nc3ccccc32)c1 (configuration not stated) | inconclusive: 18.4 µM [falling, single point] |
| Cc1ccc(SCc2cc(=O)c3c(=O)n(-c4ccccc4)[nH]c3[nH]2)cc1 | inactive |
| C=CCN1C(=O)CSC1=Nc1ccc(NC(C)=O)cc1 | inconclusive: 18.4 µM [falling, partial curve, poor fit] |
| COc1ccc(CN(C)CC(=O)Nc2ccc(SC(F)F)cc2)cc1OC | inconclusive: 18.4 µM [falling, partial curve, poor fit] |
| CCc1nnc(NC(=O)c2ccc3c(c2)C(=O)N(CC)C3=O)s1 | inconclusive: 25.9 µM [activator, partial curve] |
| Fc1ccc(CN(Cc2ccccc2)C(c2cccs2)c2nnnn2C2CCCCC2)cc1 (configuration not stated) | inconclusive: 9.2 µM [falling, partial curve] |
| NCC/C=C1/c2ccccc2CSc2ccccc21 | inactive |
| S=c1[nH]c(-c2ccccc2)cn1/N=C/c1ccc(Br)cc1 | inactive |

| SMILES | Potency |
| --- | --- |
| CC(O)C(NS(=O)(=O)c1ccc(Cl)cc1)C(=O)OCc1cc([N+](=O)[O-])cc2c1OCOC2 (configuration not stated) | inconclusive: 25.9 µM [falling, single point] |
| O=C(Oc1ccc(/C=N/NC(=O)c2ccccc2F)cc1)c1ccccc1 | inconclusive: 29.1 µM [activator, single point] |
| CC1CC(C)CN(C(=O)/C=C/c2ccc([N+](=O)[O-])s2)C1 (configuration not stated) | inconclusive: 29.1 µM [falling, single point] |
| COc1ccc(OCC(=O)NNC(=O)Nc2cccc(Cl)c2)cc1 | inactive |
| CCc1cc(C(=O)Nc2cnn(Cc3ccccc3C)c2)no1 | inconclusive: 7.31 µM [activator, partial curve, poor fit] |
| CCOC(=O)c1ccc(NC(=O)CCc2nc(-c3ccc(C)cc3)no2)cc1 | active: 14.6 µM |
| N#CC1=C2C=Cc3ccccc3N2CCCC1=O | inconclusive: 10.3 µM [activator, partial curve] |
| CCN(Cc1nc2cc(Cl)ccc2c(=O)[nH]1)C(=O)c1cc2c(s1)CCCCC2 | inactive |
| Cc1ccc(NC(=O)CCc2c(C)nc3cc(-c4ccccc4)nn3c2C)cc1F | inconclusive: 0.651 µM [falling, full curve] |
| COc1ccc(-c2nc3c(C#N)c[nH]n3c2NC2CCCC2)c(OC)c1 | inconclusive: 18.4 µM [falling, single point] |
| COc1ccc(/C(N)=N/OC(=O)c2ccc([N+](=O)[O-])c(C)c2)cc1OC | inconclusive: 8.2 µM [falling, partial curve, poor fit] |
| Cc1cc(=O)[nH]c(SCC(=O)Nc2nnc(SCc3ccccc3)s2)n1 | inconclusive: 23.1 µM [falling, single point] |
| COc1ccc(/C=C2/Sc3ccc(C(=O)NCCCN4CCOCC4)cc3NC2=O)cc1OC | inconclusive: 18.4 µM [falling, partial curve] |
| O=C(COc1ccc(Br)cc1Cl)NC(=S)Nc1ccccn1 | inconclusive: 4.11 µM [activator, partial curve] |
| COc1ccc(Cn2ccc3nc(C)c(C(=O)NCc4ccc(F)cc4)cc3c2=O)cc1 | inconclusive: 1.84 µM [falling, full curve] |
| O=C(CSc1ccc(Cl)cc1)Nc1nnc(-c2cccc([N+](=O)[O-])c2)s1 | inconclusive: 29.1 µM [falling, partial curve, poor fit] |
| Cc1ccc(-n2nnnc2-c2cccc(C)c2)cc1 | inactive |
| c1ccc(OCCOCCOc2ccccc2)cc1 | inconclusive: 29.1 µM [activator, single point] |
| CC(=O)N1CCOc2ccc(S(=O)(=O)NCC3CCC(C(=O)NCCC(C)C)CC3)cc21 (configuration not stated) | inconclusive: 25.9 µM [falling, single point] |
| COc1cc(C(=O)N/N=C(\C)c2ccccn2)cc(OC)c1OC | inactive |
| O=C(CSc1nc(=O)n(CCCN2CCOCC2)c2c1CCC2)Nc1ccc([N+](=O)[O-])cc1 | inactive |

Single values from the list.
In Potency, O=C(NCc1ccccn1)/C(=N/O)c1ccccc1 reads inconclusive: 3.26 µM [activator, full curve, poor fit]
In Potency, O=C(Cc1ccc(-n2cccc2)cc1)NCc1cccs1 reads inconclusive: 23.1 µM [activator, partial curve, poor fit]
In Potency, Cc1ccc(NC(=O)CCc2c(C)nc3cc(-c4ccccc4)nn3c2C)cc1F reads inconclusive: 0.651 µM [falling, full curve]
